Test results published in US20210355207A1 (ACADEMIA SINICA, published 2021).
These are yes or no findings as the source states them, for the method shown. Some binding calls cover weakened binding; strength is not graded here.

How the values were obtained:
[1] = molecular target: T1, human advillin in CSF of patients treated with oxaliplatin (human) (UniProt O75366); test: western blot of human CSF samples
T1 sequence (looked up): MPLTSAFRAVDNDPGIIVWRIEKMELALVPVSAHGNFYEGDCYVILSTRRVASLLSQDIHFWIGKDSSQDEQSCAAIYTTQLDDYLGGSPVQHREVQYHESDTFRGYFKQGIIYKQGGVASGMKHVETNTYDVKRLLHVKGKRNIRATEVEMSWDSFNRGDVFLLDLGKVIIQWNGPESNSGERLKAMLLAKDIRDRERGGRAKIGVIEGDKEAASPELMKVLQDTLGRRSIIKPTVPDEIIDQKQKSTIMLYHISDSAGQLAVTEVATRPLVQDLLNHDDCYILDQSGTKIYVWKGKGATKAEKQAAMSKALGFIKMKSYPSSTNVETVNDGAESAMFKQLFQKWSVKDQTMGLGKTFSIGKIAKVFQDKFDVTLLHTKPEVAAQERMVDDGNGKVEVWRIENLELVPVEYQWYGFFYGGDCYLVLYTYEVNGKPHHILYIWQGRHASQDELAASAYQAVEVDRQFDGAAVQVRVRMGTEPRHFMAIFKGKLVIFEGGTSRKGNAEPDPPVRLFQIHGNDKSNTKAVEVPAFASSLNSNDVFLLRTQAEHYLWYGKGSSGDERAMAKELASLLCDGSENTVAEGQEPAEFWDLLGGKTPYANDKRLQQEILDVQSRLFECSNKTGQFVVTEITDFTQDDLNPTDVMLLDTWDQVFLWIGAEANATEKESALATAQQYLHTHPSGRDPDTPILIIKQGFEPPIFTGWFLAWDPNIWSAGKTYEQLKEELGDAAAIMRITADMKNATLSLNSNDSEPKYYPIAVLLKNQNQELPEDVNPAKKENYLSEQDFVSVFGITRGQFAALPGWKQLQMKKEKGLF

[2] = molecular target: T1, human advillin in CSF of patients treated with oxaliplatin (human); test: western blot (summing up of Example 2)

binding [1]: binds
binding [2]: binds
B1: monoclonal antibody of human advillin hAvil, produced by the hybridoma YCC-S1 (antibody, V domains shown)
VH: EVKLEESGGGLVQPGGSLKLSCVASGFAFSNSWMSWVRQSPEKGLEWVAEIRLKSDNYASHYAESVKGRFTISRDDSKSRLYLQMNALRAEDTGIYYCSDGTWFTYWGQGTLVTVST
VL: DIVMSQSPSSLAVSVGEKVTMNCKSSQSLLYRANQKNYLAWYQQKPGQSPKLLIYWASTRESGVPDRFTGSGSGTDFTLTISSVKAEDLAVYYCQQYYSHPFTFGSGTKLKIK
notes: also called mouse monoclonal anti-human advillin; anti-advillin antibody
